In article doi:10.1101/2021.10.26.465931:
Results are given in words; binding and its absence hold for the method and conditions named. Binding seen in cells or lysates may run through a third protein. Some entries that bind do so weakly or less than the wild type.

Amino acid sequences for entries named in this document (tags omitted).
UniProt Q96GM5: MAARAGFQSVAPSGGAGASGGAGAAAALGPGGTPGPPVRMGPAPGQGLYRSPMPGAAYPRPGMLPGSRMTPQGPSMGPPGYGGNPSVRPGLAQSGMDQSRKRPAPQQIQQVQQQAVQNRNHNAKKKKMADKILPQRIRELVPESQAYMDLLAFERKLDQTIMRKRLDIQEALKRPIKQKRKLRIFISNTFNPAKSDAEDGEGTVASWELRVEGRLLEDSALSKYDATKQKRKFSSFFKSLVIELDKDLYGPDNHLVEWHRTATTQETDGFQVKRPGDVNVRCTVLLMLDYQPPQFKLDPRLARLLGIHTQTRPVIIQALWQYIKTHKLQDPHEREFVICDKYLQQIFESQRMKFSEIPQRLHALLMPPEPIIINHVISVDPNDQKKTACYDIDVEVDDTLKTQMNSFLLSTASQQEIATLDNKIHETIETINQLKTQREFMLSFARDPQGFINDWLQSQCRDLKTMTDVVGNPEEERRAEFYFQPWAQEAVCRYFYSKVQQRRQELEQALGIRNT
UniProt Q12824: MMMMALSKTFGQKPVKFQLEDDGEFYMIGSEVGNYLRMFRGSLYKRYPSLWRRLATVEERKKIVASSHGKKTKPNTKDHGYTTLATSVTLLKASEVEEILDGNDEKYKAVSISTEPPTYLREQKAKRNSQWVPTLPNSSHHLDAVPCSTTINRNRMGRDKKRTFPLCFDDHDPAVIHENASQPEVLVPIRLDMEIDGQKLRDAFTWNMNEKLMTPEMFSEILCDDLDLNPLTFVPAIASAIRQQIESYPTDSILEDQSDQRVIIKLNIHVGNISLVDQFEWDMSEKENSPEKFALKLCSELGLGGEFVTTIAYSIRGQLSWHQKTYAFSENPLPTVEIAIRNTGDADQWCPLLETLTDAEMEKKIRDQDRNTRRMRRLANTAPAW
UniProt Q15532: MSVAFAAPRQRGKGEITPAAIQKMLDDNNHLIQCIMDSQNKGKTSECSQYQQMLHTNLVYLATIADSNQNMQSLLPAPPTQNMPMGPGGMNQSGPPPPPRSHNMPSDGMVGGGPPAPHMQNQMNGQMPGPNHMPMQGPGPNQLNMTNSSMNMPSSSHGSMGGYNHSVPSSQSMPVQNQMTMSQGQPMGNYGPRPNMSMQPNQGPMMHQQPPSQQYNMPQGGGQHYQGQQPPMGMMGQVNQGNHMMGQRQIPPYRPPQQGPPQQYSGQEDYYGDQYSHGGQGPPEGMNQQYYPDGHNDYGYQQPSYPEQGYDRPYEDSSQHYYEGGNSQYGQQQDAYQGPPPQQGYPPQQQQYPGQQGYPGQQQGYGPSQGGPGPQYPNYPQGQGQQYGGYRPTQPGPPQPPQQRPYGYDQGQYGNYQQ
UniProt O96019: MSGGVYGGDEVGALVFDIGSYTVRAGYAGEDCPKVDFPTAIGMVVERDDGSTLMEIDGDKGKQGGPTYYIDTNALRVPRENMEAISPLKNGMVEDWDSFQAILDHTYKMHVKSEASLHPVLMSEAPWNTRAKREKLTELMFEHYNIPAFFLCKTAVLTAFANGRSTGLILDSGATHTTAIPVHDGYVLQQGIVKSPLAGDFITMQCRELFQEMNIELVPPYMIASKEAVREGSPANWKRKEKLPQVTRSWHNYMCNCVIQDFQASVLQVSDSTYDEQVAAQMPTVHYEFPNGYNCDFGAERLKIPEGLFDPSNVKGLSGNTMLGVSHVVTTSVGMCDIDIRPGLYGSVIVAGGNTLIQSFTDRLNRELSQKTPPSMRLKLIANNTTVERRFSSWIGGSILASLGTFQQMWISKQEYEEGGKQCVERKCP
UniProt Q969G3: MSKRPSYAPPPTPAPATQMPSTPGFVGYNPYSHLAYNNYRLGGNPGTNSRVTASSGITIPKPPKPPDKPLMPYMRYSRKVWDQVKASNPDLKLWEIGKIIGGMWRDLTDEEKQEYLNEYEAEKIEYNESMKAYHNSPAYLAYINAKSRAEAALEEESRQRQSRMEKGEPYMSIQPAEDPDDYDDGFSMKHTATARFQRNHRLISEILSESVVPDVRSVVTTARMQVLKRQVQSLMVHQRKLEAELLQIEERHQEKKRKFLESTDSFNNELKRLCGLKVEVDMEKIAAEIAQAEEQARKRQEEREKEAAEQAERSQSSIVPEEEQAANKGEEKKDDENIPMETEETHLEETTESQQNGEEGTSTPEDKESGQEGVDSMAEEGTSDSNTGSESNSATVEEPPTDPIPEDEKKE
UniProt Q92785: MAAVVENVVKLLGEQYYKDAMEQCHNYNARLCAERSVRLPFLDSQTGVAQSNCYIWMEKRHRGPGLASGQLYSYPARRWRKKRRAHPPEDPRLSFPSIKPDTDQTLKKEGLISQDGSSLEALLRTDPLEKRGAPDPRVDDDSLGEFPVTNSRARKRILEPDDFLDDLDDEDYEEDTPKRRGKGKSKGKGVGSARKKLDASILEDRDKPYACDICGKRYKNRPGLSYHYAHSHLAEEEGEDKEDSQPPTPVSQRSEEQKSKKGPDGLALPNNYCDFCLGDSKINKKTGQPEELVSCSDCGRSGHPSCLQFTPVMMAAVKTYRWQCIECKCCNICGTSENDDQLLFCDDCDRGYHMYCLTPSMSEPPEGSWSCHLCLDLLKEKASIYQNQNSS
UniProt Q92922: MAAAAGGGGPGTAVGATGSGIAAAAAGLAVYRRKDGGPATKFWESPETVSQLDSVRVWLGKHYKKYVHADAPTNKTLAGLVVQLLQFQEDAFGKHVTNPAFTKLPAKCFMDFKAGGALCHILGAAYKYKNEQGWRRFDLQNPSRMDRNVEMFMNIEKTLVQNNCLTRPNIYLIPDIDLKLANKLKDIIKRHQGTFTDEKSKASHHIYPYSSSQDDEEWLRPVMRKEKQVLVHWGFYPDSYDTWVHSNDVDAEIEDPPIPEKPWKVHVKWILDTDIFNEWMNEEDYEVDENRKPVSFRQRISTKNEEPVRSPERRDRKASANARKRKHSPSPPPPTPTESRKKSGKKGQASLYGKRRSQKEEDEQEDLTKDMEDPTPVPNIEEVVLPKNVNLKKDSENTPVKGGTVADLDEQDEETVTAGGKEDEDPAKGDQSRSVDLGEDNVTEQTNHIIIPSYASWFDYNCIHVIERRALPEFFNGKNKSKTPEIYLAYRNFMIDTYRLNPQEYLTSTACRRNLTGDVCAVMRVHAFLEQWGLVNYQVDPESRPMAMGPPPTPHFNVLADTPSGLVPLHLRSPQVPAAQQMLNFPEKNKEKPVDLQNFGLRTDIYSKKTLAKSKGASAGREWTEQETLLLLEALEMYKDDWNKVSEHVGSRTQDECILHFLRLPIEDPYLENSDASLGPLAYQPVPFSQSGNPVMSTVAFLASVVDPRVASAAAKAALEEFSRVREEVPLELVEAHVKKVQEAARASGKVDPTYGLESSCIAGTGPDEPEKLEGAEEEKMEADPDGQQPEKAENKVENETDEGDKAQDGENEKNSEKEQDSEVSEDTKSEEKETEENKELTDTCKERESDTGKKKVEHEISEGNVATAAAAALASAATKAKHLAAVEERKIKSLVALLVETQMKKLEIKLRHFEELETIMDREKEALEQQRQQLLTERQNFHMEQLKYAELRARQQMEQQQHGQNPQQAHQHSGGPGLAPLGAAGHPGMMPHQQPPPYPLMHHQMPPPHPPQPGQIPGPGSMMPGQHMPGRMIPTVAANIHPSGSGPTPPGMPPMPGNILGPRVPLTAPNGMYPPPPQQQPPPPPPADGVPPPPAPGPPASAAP

Biological target: BAF60A with an N-terminal 3xFLAG tag (human) (UniProt Q96GM5)
Experiment: co-IP

| Substance | binding |
| --- | --- |
| BAF47 (from UniProt Q12824 1-385) | binds |
| SS18 (from UniProt Q15532 1-418) | binds |
| BAF53A (from UniProt O96019 1-429) | binds |
| BAF57 with an N-terminal single-chain tetracycline repressor DNA binding domain (scTetR) (from UniProt Q969G3 1-411) | binds |
| endogenous BAF57 (from UniProt Q969G3 1-411) | binds |

Continued, values first:

| binding | Substance |
| --- | --- |
| binds | DPF2 (from UniProt Q92785 1-391) |
| binds | BAF155 (from UniProt Q92922 1-1105) |
